Measured values taken from PubChem BioAssay AID504834 (National Center for Advancing Translational Sciences (NCATS), 2011).
Screen size: about 320,000 compounds; about 22,000 (6.9%) were called active. This list was built around the results that the source calls inconclusive (neither active nor inactive); the mix of calls is not that of the screen. The call rests on the fitted dose curve; in most records, active means well fitted inhibition curve with a large enough effect; inconclusive means small, poorly fitted or top-dose-only effect, or another doubt; inactive means no such curve, though single readings can be large or run the other way. Where the call is inconclusive, the potency comes from a doubtful curve fit.

assay: Primary qHTS for delayed death inhibitors of the malarial parasite plastid, 96 hour incubation; details: P. falciparum luciferase reporter growth; series mostly up to 28.7 µM
How it was run: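 Erythrocytes infected with luciferase-expressing P. falciparum were dispensed at 2% hematocrit and 0.05% parasitemia (final), then incubated with compounds 96 hours at 37 C in 5% CO2. Luminescence after detection reagent addition reported growth.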
Potency means the concentration at half of the fitted maximal effect.

Row | SMILES | Potency
1 | COc1ccc(Cl)cc1C(=O)NCC(=O)OCc1ccccc1 | inactive
2 | Cc1[nH]c2ccccc2c1C1=NNC(=Nc2ccc(F)cc2)SC1 | active: 8.28 µM
3 | CCCOc1ccc(/C=N/Nc2ccccc2[N+](=O)[O-])c(OCCC)c1 | inactive
4 | COc1ccc(C(NC(=O)c2c(F)c(F)c(F)c(F)c2F)c2ccccc2)cc1 (stereo unspecified) | inconclusive: 18.5 µM [inhibitor, single point]
5 | CCOP(=O)(OCC)c1nc(-c2cccc3ccccc23)oc1N1CCCCC1 | inconclusive: 1.31 µM [inhibitor, full curve]
6 | COc1ccc(S(=O)(=O)N(CC(=O)NCc2ccco2)c2ccccc2)cc1 | inconclusive: 5.22 µM [inhibitor, partial curve, poor fit]
7 | Cc1c(Br)c(=O)oc2c(Br)c(O)ccc12 | inconclusive: 11.7 µM [inhibitor, single point]
8 | Cc1nc(N)c(CC(Br)CBr)c(Cl)n1 (stereo unspecified) | inconclusive: 10.4 µM [inhibitor, partial curve, poor fit]
9 | Cc1ccc(-n2ncc3c(=O)n(CC(=O)NC4CCCCC4)cnc32)cc1 | active: 4.65 µM
10 | Cc1nnc(SCCn2c(N(C)Cc3ccccc3)nc3c2c(=O)[nH]c(=O)n3C)s1 | inconclusive: 8.28 µM [inhibitor, single point]
11 | COc1ccc(S(=O)(=O)N2CCN(C(=O)CCNC(=O)c3ccccc3Cl)CC2)cc1 | inconclusive: 3.7 µM [inhibitor, partial curve, poor fit]
12 | O=C(NNc1ccccc1[N+](=O)[O-])Nc1cccc(Cl)c1 | inconclusive: 11.7 µM [inhibitor, partial curve, poor fit]
13 | CN1CCN(CC(=O)N2c3ccccc3C(C)(c3ccc(Cl)cc3)CC2(C)C)CC1 (stereo unspecified) | inconclusive: 16.5 µM [inhibitor, single point]
14 | S=C(c1cn(CCOc2ccccc2)c2ccccc12)N1CCCC1 | inconclusive: 18.5 µM [inhibitor, single point]
15 | CCCn1c(SCC(=O)NCCc2ccccc2)nnc1-c1ccco1 | inconclusive: 10.4 µM [inhibitor, partial curve, poor fit]
16 | COc1ccc(Cn2c(=O)[nH]c3cc(C(=O)N4CCN(c5ccccn5)CC4)ccc3c2=O)cc1 | inconclusive: 11.7 µM [inhibitor, partial curve, poor fit]
17 | Cc1ccc(CSCC(=O)Nc2cc(S(=O)(=O)N3CCOCC3)ccc2OC(C)C)cc1 | active: 6.57 µM
18 | CC(C)Oc1ccc2c3c(c(=O)oc2c1)CCC3 | inconclusive: 18.5 µM [inhibitor, single point]
19 | Cc1cc(N2C(=O)C(O)=C(C(=O)c3cc4ccccc4o3)C2c2cccc(Cl)c2)no1 (stereo unspecified) | inconclusive: 2.94 µM [inhibitor, partial curve, poor fit]
20 | OC(CNC1CCCCCCC1)c1ccccc1 (stereo unspecified) | inconclusive: 1.47 µM [inhibitor, full curve]
21 | C=CCc1ccccc1OCCNCCCOC | inactive
22 | Fc1ccc(N2CCN(Cc3cc4c(cc3Br)OCO4)CC2)cc1 | inconclusive: 18.5 µM [inhibitor, single point]
23 | c1cnc(-c2noc(CN3CCN(C4C5CC6CC(C5)CC4C6)CC3)n2)cn1 (stereo unspecified) | inactive
24 | Cc1ccc(C2(c3ccccc3)NC(=O)N(CC(=O)N(C)C3CCS(=O)(=O)C3)C2=O)cc1C (stereo unspecified) | inconclusive: 18.5 µM [inhibitor, single point]

Compounds shown so far with two or more sulfur atoms:
Row | SMILES | Potency
10 | Cc1nnc(SCCn2c(N(C)Cc3ccccc3)nc3c2c(=O)[nH]c(=O)n3C)s1 | inconclusive: 8.28 µM [inhibitor, single point]
17 | Cc1ccc(CSCC(=O)Nc2cc(S(=O)(=O)N3CCOCC3)ccc2OC(C)C)cc1 | active: 6.57 µM

Next results

Row | SMILES | Potency
25 | CCc1ccccc1NC(=O)CN1CCN(C(=O)CN2C(=O)NC3(CCCCC3C)C2=O)CC1 (stereo unspecified) | inconclusive: 18.5 µM [inhibitor, single point]
26 | CS(=O)(=O)c1ccc(-c2csc(-c3cccnc3)n2)cc1 | inactive
27 | COc1ccc(CCn2c(C)ccc2C)cc1OC | active: 8.28 µM
28 | O=C(NCC(c1ccco1)N1CCCC1)c1cc2cc(Cl)ccc2o1 (stereo unspecified) | active: 9.28 µM
29 | CCOC(=O)C1=C(CNCc2ccccc2Cl)NC(=O)NC1c1cccc([N+](=O)[O-])c1 (stereo unspecified) | active: 0.928 µM
30 | CCOc1ccc(N2CC(C(=O)NC(C)C)CC2=O)cc1 (stereo unspecified) | inconclusive: 0.928 µM [inhibitor, partial curve, poor fit]
31 | COc1ccc(CC(=O)NCC(c2ccc(OC)cc2)N(C)C)cc1 (stereo unspecified) | inactive
32 | CC(C)(C)C(=O)/C=C/c1ccc(Oc2ccccc2)cc1 | inactive
33 | CC1(C)Cc2c(sc3nc(SCC(=O)O)nc(N)c23)CO1 | inactive
34 | O=C(Oc1ccc2ccc(=O)oc2c1)c1ccc([N+](=O)[O-])cc1 | inactive
35 | CCCC(c1nnnn1Cc1ccc(OC)cc1)N1CCN(C(=O)c2ccco2)CC1 (stereo unspecified) | inactive
36 | CCOc1ccc(CCN2CN(CC)CNC2=S)cc1OCC | inconclusive: 10.4 µM [inhibitor, partial curve, poor fit]
37 | CCO[C@@H]1OC(C(=O)O)=C[C@H](c2ccc(C(F)(F)F)cc2)[C@H]1CCCO | inactive
38 | O=C(c1ccc(CS(=O)(=O)Cc2ccccc2)cc1)N1CCCCC1 | inconclusive: 1.85 µM [inhibitor, full curve]
39 | Cc1ccc2c(c1)CCCN2CC(=O)Nc1cccc(S(=O)(=O)N2CCCC2)c1 | inconclusive: 18.5 µM [inhibitor, single point]
40 | Cc1cc(C(=O)Nc2ccncc2)ccc1[N+](=O)[O-] | inactive
41 | Clc1cc2cccnc2c2ncccc12 | active: 11.7 µM
42 | CC(NC(=O)CCN1C(=O)c2ccccc2C1=O)c1ccc2c(c1)CCCC2 (stereo unspecified) | inconclusive: 13.1 µM [inhibitor, single point]
43 | O=C(CN1N=C(c2ccccc2)CCC1=O)NCc1cccs1 | inconclusive: 16.5 µM [inhibitor, partial curve, poor fit]
44 | Nc1ccc(C#Cc2ccccc2)cc1 | inactive
45 | CC1(OC(=O)C2CCCC2)C(=O)C=C2C=C(c3ccsc3)N(CCN3CCOCC3)C=C2C1=O (stereo unspecified) | inconclusive: 18.5 µM [inhibitor, single point]
46 | Cc1cc(Cl)ccc1NC(=O)NC1CCN(S(=O)(=O)c2ccc(F)cc2)CC1 | inconclusive: 13.1 µM [inhibitor, partial curve, poor fit]
47 | CC1(C)Cc2c(C#N)c(OCC(=O)c3ccc(Cl)cc3)nc(-c3ccco3)c2CO1 | inconclusive: 10.4 µM [inhibitor, single point]
48 | CCOC(=O)c1ccccc1NC(=O)CN(c1ccccc1C)S(C)(=O)=O | inactive

Row | SMILES | Potency
49 | CSc1ncc(CN2CCc3c([nH]c4ccccc34)C2c2cccc(C)n2)cn1 (stereo unspecified) | inconclusive: 9.28 µM [inhibitor, single point]
50 | O=C(N/N=C/c1ccccc1O)/C(=C/c1ccccc1)CCO | inconclusive: 18.5 µM [inhibitor, single point]
51 | CCCc1ncc(C(O)c2cccc(OC)c2)n1C (stereo unspecified) | inactive
52 | O=C(CCN1CCCCC1)NCC1OCCc2ccccc21 (stereo unspecified) | inactive
53 | CCc1cc(C(c2ccccc2OC)N2CCOCC2)c(NC(=O)c2ccccc2)s1 (stereo unspecified) | inconclusive: 18.5 µM [inhibitor, single point]
54 | O=C(NCc1ccccc1Cl)C1CCN(S(=O)(=O)c2ccc(N3CCCC3=O)cc2)CC1 | active: 9.28 µM
55 | COCCCn1c(=O)c2ccccc2n(CC(=O)NC2CCCCC2)c1=O | inactive
56 | COC(=O)c1ccc(CN2C(=O)c3ccccc3C2=O)o1 | inactive
57 | COC(=O)c1sc(-c2ccc(C(C)(C)C)cc2)cc1NC(=O)/C=C/C(=O)O | inconclusive: 18.5 µM [inhibitor, single point]
58 | O=C(C[n+]1ccc(-c2nnc3n2CCC3)cc1)c1ccc(Cl)c(Cl)c1 | inconclusive: 18.5 µM [inhibitor, single point]
59 | CCCC/C(=N\NC(=O)c1ccc(Br)o1)c1ccccc1 | inconclusive: 11.7 µM [inhibitor, single point]
60 | Cc1ccc(C2CC(c3cccc(C)c3)n3nc(N)nc3N2)cc1 (stereo unspecified) | inconclusive: 18.5 µM [inhibitor, single point]
61 | Cc1ccc(Nc2nc(CSc3nnc(-c4cccnc4)n3-c3ccccc3C)cs2)cc1 | inconclusive: 14.7 µM [inhibitor, partial curve, poor fit]
62 | COc1ccc(C(CNC(=O)c2ccc(OC)c(S(=O)(=O)N3CCCC3)c2)N2CCCC2)cc1 (stereo unspecified) | active: 10.4 µM
63 | COc1ccc(NC(=O)c2ccco2)cc1NC(=O)c1ccccc1F | inactive
64 | C#CCn1c(S(=O)(=O)Cc2ccc(OC)cc2)nc(-c2ccccc2)c1-c1ccccc1 | inconclusive: 7.38 µM [inhibitor, partial curve, poor fit]
65 | CCCCC(=O)N/N=C/c1ccc(-c2ccc([N+](=O)[O-])cc2)o1 | active: 9.28 µM
66 | Cc1ccc(OCC(=O)Nc2ccc(S(=O)(=O)N3CCCCC3)cc2)c([N+](=O)[O-])n1 | inconclusive: 9.28 µM [inhibitor, single point]
67 | Cc1ccc(S(=O)(=O)NCC2CCC(C(=O)NCCCOC(C)C)CC2)cc1 (stereo unspecified) | inactive
68 | O=C1C(=O)N(Cc2cccnc2)C(c2ccccn2)/C1=C(/O)c1ccc(F)cc1 (stereo unspecified) | inconclusive: 0.928 µM [inhibitor, full curve, poor fit]
69 | Nc1nnc(SCCCOc2ccc(F)cc2)s1 | inconclusive: 18.5 µM [inhibitor, single point]
70 | CCOc1ccc(CN2C(=O)c3ccccc3C2C(=O)NCc2cccnc2)cc1 (stereo unspecified) | inconclusive: 0.465 µM [inhibitor, full curve, poor fit]
71 | Cc1nc(SCCOc2ccccc2F)[nH]c(=O)c1Cc1ccccc1 | inconclusive: 4.15 µM [inhibitor, single point]
